Experimental data taken from patent publication US8637518B2, “Pyridazinone derivatives” (MERCK PATENT GmbH, priority 2008, dated 2014).
Some of these results come from one statement about several compounds together.

By UniProt entry, the sequences of proteins in these tests, tags left out. Residues count along the entry.
UniProt P08581, 974-1390 limits assumed: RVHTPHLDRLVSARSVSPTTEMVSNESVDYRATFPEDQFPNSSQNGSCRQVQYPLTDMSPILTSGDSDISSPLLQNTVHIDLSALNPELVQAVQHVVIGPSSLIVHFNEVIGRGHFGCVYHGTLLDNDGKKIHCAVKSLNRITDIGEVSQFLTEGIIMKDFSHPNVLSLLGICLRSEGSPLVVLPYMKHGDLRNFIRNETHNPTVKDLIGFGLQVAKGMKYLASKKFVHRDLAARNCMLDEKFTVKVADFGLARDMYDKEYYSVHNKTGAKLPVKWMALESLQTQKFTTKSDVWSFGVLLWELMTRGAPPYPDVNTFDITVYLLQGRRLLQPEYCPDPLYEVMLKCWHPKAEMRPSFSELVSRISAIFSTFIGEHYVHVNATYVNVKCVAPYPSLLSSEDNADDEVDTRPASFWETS

molecular target: T1, Met kinase (Homo sapiens, UniProt P08581); assay: Met kinase inhibition, enzyme assay (flashplate method); type: biochemical; settings: result in words
T1 construct: 6His (N); purchased Upstate 14-526; host or cells: Sf21 insect cells (S. frugiperda), baculovirus
Source text: According to the manufacturer's data (Met, active, upstate, catalogue No. 14-526), Met kinase is expressed for the purposes of protein production in insect cells (Sf21; S. frugiperda) and subsequent affinity-chromatographic purification as “N-terminal 6His-tagged” recombinant human protein in a baculovirus expression vector.
The test plates used are 96-well Flashplate® microtitre plates from Perkin Elmer (Cat. No. SMP200). The components of the kinase reaction described below are pipetted into the assay plate. The Met kinase and the substrate poly Ala-Glu-Lys-Tyr, (pAGLT, 6:2:5:1), are incubated for 3 hrs at room temperature with radioactively labelled ^33P-ATP in the presence and absence of test substances in a total volume of 100 μl. The reaction is terminated using 150 μl of a 60 mM EDTA solution. After incubation for a further 30 min at room temperature, the supernatants are filtered off with suction, and the wells are washed three times with 200 μl of 0.9% NaCl solution each time. The measurement of the bound radioactivity is carried out by means of a scintillation measuring instrument (Topcount NXT, Perkin-Elmer).
The full value used is the inhibitor-free kinase reaction. This should be approximately in the range 6000-9000 cpm. The pharmacological zero value used is staurosporin in a final concentration of […]. The inhibitory values ([…]) are determined using the RS1_MTS program.
Kinase reaction conditions per well:
• 30 μl of assay buffer • 10 μl of substance to be tested in assay buffer with 10% of DMSO • 10 μl of ATP (final concentration 1 μM cold, 0.35 μCi of ^33P-ATP) • 50 μl of Met kinase/substrate mixture in assay buffer; • (10 ng of enzyme/well, 50 ng of pAGLT/well)
Solutions used: • Assay buffer:
50 mM HEPES • 3 mM magnesium chloride • 3 μM sodium orthovanadate • 3 mM manganese(II) chloride • 1 mM dithiothreitol (DTT)
pH=7.5 (to be set using sodium hydroxide) • Stop solution:
60 mM Titriplex III (EDTA) • ^33P-ATP: Perkin-Elmer; • Met kinase: Upstate, Cat. No. 14-526, Stock 1 μg/10 μl; spec. activity 954 U/mg; • Poly-Ala-Glu-Lys-Tyr, 6:2:5:1: Sigma Cat. No. P1152 In-vivo tests

Kinase inhibitory activity, inhibitors of MET kinase:
NC(=O)c1cccc(-c2ccc(=O)n(Cc3cccc(-c4ncc(O)cn4)c3)n2)c1 [Compound D1, 3-{1-[3-(5-Hydroxypyrimidin-2-yl)benzyl]-6-oxo-1,6-dihydro-pyridazin-3-yl}benzamide]
CC(C)Oc1cnc(-c2cccc(Cn3nc(-c4cccc(C#N)c4)ccc3=O)c2)nc1 [Compound D2, 3-{1-[3-(5-Isopropoxypyrimidin-2-yl)benzyl]-6-oxo-1,6-dihydropyridazin-3-yl}benzonitrile]
COc1cnc(-c2cccc(Cn3nc(-c4cccc(C#N)c4)ccc3=O)c2)nc1 [Compound D3, 3-{1-[3-(5-Methoxypyrimidin-2-yl)benzyl]-6-oxo-1,6-dihydropyridazin-3-yl}-benzonitrile]
COCCOc1cnc(-c2cccc(Cn3nc(-c4cnn(CCOC)c4)ccc3=O)c2)nc1 [Compound D4, 2-{3-[5-(2-Methoxyethoxy)pyrimidin-2-yl]benzyl}-6-[1-(2-methoxyethyl)-1H-pyrazol-4-yl]-2H-pyridazin-3-one]
CN(C)CCCOc1cnc(-c2cccc(Cn3nc(-c4ccc(F)c(C#N)c4)ccc3=O)c2)nc1 [Compound D5, 5-(1-{3-[5-(3-Dimethylaminopropoxy)pyrimidin-2-yl]benzyl}-6-oxo-1,6-dihydropyridazin-3-yl)-2-fluorobenzonitrile]
CNCC(O)COc1cnc(-c2cccc(Cn3nc(-c4cccc(C#N)c4)ccc3=O)c2)nc1 (stereo not drawn) [Compound D6, 3-(1-{3-[5-(2-Hydroxy-3-methylaminopropoxy)pyrimidin-2-yl]benzyl}-6-oxo-1,6-dihydropyridazin-3-yl)benzonitrile]
CN(C)CC(C)(C)COc1cnc(-c2cccc(Cn3nc(-c4cccc(C#N)c4)ccc3=O)c2)nc1 [Compound D7, 3-(1-{3-[5-(3-Dimethylamino-2,2-dimethylpropoxy)pyrimidin-2-yl]benzyl}-6-oxo-1,6-dihydropyridazin-3-yl)benzonitrile]
CN(C)CCOc1cnc(-c2cccc(Cn3nc(-c4cnn(C)c4)ccc3=O)c2)nc1 [Compound D8, 2-{3-[5-(2-Dimethylaminoethoxy)pyrimidin-2-yl]benzyl}-6-(1-methyl-1H-pyrazol-4-yl)-2H-pyridazin-3-one]
Cn1cc(-c2ccc(=O)n(Cc3cccc(-c4ncc(OCC(O)CO)cn4)c3)n2)cn1 (stereo not drawn) [Compound D9, 2-{3-[5-(2,3-dihydroxypropoxy)pyrimidin-2-yl]benzyl}-6-(1-methyl-1H-pyrazol-4-yl)-2H-pyridazin-3-one]
N#Cc1cccc(-c2ccc(=O)n(Cc3cccc(-c4ncc(OCC(O)CO)cn4)c3)n2)c1 (stereo not drawn) [Compound D10, 3-(1-{3-[5-(2,3-Dihydroxypropoxy)pyrimidin-2-yl]benzyl}-6-oxo-1,6-dihydro-pyridazin-3-yl)benzonitrile]
N#Cc1cccc(-c2ccc(=O)n(Cc3cccc(-c4ncc(OCCN)cn4)c3)n2)c1 [Compound D11, 3-(1-{3-[5-(2-Aminoethoxy)pyrimidin-2-yl]benzyl}-6-oxo-1,6-dihydropyridazin-3-yl)benzonitrile]
Cn1cc(-c2ccc(=O)n(Cc3cccc(-c4ncc(O)cn4)c3)n2)cn1 [Compound D12, 2-[3-(5-Hydroxypyrimidin-2-yl)benzyl]-6-(1-methyl-1H-pyrazol-4-yl)-2H-pyridazin-3-one]
